The supplement of paper PMC12819154, “High-throughput peptide-centric local stability assay extends protein–ligand identification to membrane proteins, tissues and bacteria” (Nature Structural & Molecular Biology, 2025)
The other results are listed elsewhere or left out. Small differences around the control level are noise.

The chains behind the UniProt entries cited, without tags or fusion partners. Where a name states a change or a piece, a line headed by the entry shows the natural chain unless it says otherwise.
UniProt B2RTY4: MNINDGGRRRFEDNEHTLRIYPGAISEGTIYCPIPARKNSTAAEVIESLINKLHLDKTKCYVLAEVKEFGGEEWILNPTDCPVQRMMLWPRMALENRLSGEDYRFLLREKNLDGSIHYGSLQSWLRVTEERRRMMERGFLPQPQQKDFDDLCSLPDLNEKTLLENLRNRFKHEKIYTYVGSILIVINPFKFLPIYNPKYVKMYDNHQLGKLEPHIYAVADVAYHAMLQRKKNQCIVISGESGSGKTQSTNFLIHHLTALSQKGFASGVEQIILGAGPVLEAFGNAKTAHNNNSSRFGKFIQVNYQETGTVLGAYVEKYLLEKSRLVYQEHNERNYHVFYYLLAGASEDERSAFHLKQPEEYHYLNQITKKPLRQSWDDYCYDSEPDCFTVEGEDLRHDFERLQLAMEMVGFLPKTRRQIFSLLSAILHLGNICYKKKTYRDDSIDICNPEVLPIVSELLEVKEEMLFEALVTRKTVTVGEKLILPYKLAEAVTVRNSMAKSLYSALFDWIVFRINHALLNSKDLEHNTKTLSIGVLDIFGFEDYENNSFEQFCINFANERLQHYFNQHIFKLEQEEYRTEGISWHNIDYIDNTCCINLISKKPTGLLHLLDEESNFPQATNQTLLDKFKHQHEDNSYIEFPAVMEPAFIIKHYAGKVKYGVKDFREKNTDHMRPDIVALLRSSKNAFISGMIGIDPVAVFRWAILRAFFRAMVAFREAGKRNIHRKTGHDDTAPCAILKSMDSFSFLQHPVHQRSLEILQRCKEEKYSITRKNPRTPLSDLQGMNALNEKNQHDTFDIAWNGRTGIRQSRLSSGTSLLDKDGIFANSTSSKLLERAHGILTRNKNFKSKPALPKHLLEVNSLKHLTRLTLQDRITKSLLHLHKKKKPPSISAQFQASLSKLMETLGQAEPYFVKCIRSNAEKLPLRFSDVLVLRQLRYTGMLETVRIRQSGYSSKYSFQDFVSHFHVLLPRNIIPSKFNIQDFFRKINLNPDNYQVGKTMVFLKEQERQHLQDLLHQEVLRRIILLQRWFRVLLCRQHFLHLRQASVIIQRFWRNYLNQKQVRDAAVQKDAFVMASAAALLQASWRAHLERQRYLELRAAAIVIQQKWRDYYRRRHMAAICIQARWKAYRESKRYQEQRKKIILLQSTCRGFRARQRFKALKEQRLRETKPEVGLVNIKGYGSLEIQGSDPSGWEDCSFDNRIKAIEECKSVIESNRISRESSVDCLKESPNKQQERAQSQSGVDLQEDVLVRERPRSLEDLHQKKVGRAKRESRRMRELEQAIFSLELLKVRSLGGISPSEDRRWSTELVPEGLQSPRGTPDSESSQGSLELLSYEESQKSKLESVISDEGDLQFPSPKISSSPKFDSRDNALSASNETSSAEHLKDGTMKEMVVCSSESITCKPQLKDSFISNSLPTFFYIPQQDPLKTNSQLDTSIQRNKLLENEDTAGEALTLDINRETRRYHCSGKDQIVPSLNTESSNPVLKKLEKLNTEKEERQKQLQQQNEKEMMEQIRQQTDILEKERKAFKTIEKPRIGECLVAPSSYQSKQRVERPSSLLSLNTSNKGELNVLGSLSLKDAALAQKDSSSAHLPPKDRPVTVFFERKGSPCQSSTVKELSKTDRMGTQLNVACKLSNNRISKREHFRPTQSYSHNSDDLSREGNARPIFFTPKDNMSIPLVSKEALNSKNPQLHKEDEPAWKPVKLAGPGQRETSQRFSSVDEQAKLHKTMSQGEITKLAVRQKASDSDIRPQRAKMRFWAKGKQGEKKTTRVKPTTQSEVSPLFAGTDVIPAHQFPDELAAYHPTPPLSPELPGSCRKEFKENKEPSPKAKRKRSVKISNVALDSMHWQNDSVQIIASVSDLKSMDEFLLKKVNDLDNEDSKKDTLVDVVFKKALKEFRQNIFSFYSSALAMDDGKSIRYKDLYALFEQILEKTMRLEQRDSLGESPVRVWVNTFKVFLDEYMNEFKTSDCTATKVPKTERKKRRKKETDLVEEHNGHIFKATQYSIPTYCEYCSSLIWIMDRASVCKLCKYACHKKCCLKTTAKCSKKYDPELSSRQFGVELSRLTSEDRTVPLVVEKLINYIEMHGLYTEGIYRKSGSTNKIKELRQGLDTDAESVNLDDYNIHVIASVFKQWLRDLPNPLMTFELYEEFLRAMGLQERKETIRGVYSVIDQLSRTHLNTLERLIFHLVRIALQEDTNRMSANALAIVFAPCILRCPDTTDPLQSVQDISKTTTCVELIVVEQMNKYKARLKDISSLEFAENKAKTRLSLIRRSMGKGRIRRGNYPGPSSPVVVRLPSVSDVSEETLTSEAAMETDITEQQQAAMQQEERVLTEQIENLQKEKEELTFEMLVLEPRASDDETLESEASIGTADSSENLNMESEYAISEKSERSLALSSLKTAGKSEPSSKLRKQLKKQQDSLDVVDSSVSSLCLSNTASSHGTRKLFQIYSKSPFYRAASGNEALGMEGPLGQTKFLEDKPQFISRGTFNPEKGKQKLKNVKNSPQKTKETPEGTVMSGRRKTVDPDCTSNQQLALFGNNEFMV
UniProt O00151: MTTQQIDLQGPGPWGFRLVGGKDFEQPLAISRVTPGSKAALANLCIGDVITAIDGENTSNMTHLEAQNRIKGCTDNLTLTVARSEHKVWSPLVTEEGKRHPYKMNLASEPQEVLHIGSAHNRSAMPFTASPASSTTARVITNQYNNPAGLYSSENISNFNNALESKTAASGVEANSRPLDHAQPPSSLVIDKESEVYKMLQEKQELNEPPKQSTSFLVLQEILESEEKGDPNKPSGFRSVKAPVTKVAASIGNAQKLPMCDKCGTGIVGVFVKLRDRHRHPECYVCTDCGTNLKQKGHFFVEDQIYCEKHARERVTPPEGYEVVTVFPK
UniProt A8MXV4: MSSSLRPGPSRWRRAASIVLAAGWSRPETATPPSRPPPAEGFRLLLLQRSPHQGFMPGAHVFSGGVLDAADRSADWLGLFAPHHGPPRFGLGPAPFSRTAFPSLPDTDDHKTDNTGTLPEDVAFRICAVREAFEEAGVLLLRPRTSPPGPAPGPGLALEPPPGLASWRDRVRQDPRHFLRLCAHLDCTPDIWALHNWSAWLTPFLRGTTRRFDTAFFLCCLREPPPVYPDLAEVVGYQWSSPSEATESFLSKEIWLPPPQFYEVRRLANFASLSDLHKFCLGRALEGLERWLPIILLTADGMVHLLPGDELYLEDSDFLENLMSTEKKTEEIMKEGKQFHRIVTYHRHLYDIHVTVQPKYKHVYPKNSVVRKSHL
UniProt O14773: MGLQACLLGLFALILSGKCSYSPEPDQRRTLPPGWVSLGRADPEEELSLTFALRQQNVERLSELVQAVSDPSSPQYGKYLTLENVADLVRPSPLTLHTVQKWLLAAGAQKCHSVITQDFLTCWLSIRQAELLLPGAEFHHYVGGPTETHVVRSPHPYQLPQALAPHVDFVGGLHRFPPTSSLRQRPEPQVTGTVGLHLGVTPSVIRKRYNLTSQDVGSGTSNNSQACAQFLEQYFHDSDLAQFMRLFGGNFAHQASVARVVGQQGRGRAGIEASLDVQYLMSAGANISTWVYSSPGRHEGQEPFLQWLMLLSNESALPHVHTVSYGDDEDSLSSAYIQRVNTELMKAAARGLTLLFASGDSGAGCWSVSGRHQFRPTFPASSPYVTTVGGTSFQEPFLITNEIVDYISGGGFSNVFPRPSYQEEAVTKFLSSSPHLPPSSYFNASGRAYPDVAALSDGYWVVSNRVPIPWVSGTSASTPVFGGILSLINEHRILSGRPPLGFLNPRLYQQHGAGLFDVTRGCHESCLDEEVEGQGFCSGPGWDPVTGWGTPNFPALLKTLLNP
UniProt O15525: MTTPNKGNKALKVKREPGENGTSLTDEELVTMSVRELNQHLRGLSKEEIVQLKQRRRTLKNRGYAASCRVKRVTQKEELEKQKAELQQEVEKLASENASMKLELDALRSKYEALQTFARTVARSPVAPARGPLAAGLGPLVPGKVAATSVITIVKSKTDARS
UniProt O14787: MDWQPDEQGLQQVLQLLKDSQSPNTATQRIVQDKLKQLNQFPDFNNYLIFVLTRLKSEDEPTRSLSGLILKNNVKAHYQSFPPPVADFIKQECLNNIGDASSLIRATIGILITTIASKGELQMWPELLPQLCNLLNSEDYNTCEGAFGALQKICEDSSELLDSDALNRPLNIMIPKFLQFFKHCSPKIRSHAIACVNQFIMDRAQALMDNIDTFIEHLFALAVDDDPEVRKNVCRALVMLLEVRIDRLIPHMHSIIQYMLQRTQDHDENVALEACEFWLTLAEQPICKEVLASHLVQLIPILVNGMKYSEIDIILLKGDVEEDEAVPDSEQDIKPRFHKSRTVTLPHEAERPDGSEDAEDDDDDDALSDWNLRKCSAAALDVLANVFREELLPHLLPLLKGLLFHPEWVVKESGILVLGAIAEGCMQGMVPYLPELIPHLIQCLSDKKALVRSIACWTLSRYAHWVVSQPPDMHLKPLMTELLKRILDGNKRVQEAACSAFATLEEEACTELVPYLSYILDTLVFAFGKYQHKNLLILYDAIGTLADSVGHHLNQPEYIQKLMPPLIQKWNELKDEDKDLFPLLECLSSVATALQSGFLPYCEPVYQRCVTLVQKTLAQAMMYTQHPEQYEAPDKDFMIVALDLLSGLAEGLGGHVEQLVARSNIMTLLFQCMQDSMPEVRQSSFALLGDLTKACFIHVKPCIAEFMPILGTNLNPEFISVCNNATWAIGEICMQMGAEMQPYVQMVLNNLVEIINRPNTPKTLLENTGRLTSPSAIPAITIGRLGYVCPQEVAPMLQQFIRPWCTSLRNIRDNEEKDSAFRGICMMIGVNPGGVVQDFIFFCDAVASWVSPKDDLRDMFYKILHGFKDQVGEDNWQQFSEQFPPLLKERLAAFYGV
UniProt O15040: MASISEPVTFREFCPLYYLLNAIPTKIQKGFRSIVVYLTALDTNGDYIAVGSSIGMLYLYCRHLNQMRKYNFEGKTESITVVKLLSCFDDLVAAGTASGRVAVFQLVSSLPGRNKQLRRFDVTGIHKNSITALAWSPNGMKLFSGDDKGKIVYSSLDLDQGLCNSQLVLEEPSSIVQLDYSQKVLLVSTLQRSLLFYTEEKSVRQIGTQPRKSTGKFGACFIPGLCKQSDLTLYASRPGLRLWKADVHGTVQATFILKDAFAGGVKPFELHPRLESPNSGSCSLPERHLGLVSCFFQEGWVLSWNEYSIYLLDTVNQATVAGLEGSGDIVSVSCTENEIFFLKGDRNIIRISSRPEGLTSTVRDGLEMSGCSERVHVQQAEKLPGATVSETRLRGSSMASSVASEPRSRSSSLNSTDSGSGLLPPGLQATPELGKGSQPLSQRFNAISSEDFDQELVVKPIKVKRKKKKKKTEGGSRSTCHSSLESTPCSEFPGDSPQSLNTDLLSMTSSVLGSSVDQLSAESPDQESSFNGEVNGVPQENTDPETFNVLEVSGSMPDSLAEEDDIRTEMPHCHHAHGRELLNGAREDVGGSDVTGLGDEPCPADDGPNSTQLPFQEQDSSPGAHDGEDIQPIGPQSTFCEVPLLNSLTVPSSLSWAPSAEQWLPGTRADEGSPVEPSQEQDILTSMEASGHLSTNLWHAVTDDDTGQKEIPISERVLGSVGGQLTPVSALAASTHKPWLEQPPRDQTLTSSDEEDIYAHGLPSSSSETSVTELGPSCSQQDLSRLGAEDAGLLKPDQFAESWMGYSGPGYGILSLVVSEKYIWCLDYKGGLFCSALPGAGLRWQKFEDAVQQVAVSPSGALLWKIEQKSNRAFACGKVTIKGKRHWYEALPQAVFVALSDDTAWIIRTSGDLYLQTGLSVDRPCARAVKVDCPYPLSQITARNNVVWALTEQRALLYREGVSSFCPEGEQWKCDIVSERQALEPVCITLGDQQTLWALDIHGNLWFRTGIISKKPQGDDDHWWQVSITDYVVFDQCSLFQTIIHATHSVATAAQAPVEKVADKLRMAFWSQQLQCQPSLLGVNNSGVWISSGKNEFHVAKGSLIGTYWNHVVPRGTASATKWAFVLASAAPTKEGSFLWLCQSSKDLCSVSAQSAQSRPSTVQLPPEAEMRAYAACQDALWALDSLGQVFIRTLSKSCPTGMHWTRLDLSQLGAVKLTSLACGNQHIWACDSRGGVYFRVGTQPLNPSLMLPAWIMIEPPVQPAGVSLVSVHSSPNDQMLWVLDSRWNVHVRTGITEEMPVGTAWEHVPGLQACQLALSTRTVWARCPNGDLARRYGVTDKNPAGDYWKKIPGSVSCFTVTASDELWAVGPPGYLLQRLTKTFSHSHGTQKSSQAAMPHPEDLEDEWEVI

Compound: Cc1nc(Nc2ncc(C(=O)Nc3c(C)cccc3Cl)s2)cc(N2CCN(CCO)CC2)n1 [dasatinib]
Test: log2 fold change of tryptic peptide abundance, ligand vs vehicle (limited proteolysis) (log2 ratio); higher = more trypsin-susceptible (destabilized)
Conditions: ligand concentration: 5 uM; sample: K562 cleared lysate

| Target | log2 fold change |
| --- | --- |
| MYO9A (peptide sequence: ETKPEVGLVNIK, peptide start residue: 1168) (UniProt B2RTY4) | -0.48 |
| PDLIM1 (peptide sequence: QKGHFFVEDQIYCEK, peptide start residue: 295) (UniProt O00151) | -0.285 |
| NUDT19 (peptide sequence: FGLGPAPFSR, peptide start residue: 89) (UniProt A8MXV4) | -0.0548 |
| TPP1 (peptide sequence: ILSGRPPLGFLNPR, peptide start residue: 493) (UniProt O14773) | -0.0916 |
| MAFG (peptide sequence: GPLAAGLGPLVPGK, peptide start residue: 131) (UniProt O15525) | -0.141 |
| NDUFAB1 (peptide sequence: LMCPQEIVDYIADKK, peptide start residue: 138) (UniProt O14561) | 0.675 |
| TNPO2 (peptide sequence: GLLFHPEWVVK, peptide start residue: 401) (UniProt O14787) | -0.596 |
| UniProt O15040 (peptide sequence: DGLEMSGCSER, peptide start residue: 364) | 0.108 |
| UniProt O14607 (peptide sequence: DKLNPPTPSIYLENKR, peptide start residue: 934) | -0.197 |
